# Test results from the supplement of paper PMC8728848.
# Some of the results follow.
# B1: PP2A1 (Arabidopsis thaliana) (protein)
# chain: MFRNQDSKYLIPVQKEAPPVTTLPMKASTVKSPHNCEAILRDADPPISLSSVNLSEQLRSGVFLKPKKQIKYWVDERNSNCFMLFAKNLSITWSDDVNYWTWFTEKESPNENVEAVGLKNVCWLDITGKFDTRNLTPGIVYEVVFKVKLEDPAYGWDTPVNLKLVLPNGKEKPQEKKVSLRELPRYKWVDVRVGEFVPEKSAAGEITFSMYEHAAGVWKKGLSLKGVAIRPKQHHHHHH
# Key:
# Assay in all cases: glycan array binding signal (z-score within array); higher = stronger binding
# Details in all cases: glycan notation: IUPAC condensed, linker removed
# [1] = molecular target: Gal(b1-4)GlcNAc(b1-2)[Gal(b1-4)GlcNAc(b1-4)]Man(a1-3)[Gal(b1-4)GlcNAc(b1-2)Man(a1-6)]Man(b1-4)GlcNAc(b1-4)GlcNAc
# Method in brief: (§1)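 Glycan array data were curated from 3228 arrays in the Consortium for Functional Glycomics database and kept only where the protein sequence was available. Glycan names were converted to IUPAC-condensed notation, and columns mapping to the same glycan were averaged. The binding signal is a within-array Z-score, averaged across arrays of the same protein sequence at different concentrations or buffers and across linkers. Negative Z-scores can be read as non-binding.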
# [2] = molecular target: Gal(b1-4)GlcNAc(b1-3)Gal(b1-3)GlcNAc
# Method in brief: as §1
# [3] = molecular target: Gal(b1-4)GlcNAc(b1-3)Gal(b1-4)Glc
# Method in brief: as §1
# [4] = molecular target: Gal(b1-4)GlcNAc(b1-3)Gal(b1-4)GlcNAc
# Method in brief: as §1
# [5] = molecular target: Gal(b1-4)GlcNAc(b1-3)Gal(b1-4)GlcNAc(b1-3)Gal(b1-4)GlcNAc
# Method in brief: as §1
# [6] = molecular target: Gal(b1-4)GlcNAc(b1-3)Gal(b1-4)[Fuc(a1-3)]GlcNAc(b1-3)Gal(b1-4)[Fuc(a1-3)]GlcNAc
# Method in brief: as §1
# [7] = molecular target: Gal(b1-4)GlcNAc(b1-3)GalNAc
# Method in brief: as §1
# [8] = molecular target: Gal(b1-4)GlcNAc(b1-3)[Gal(b1-4)GlcNAc(b1-6)]Gal(b1-4)GlcNAc
# Method in brief: as §1
# [9] = molecular target: Gal(b1-4)GlcNAc(b1-3)[GlcNAc(b1-6)]Gal(b1-4)GlcNAc
# Method in brief: as §1
# [10] = molecular target: Gal(b1-4)GlcNAc(b1-6)Gal(b1-4)GlcNAc
# Method in brief: as §1
# [11] = molecular target: Gal(b1-4)GlcNAc(b1-6)Gal(b1-4)GlcNAc(b1-6)GalNAc
# Method in brief: as §1
# [12] = molecular target: Gal(b1-4)GlcNAc(b1-6)GalNAc
# Method in brief: as §1
# [13] = molecular target: Gal(b1-4)GlcNAc(b1-6)[Gal(b1-3)]GalNAc
# Method in brief: as §1
# [14] = molecular target: Gal3S(b1-3)GalNAc
# Method in brief: as §1
# [15] = molecular target: Gal3S(b1-3)GlcNAc
# Method in brief: as §1
# [16] = molecular target: Gal3S(b1-3)[Fuc(a1-4)]GlcNAc
# Method in brief: as §1
# [17] = molecular target: Gal3S(b1-4)Glc
# Method in brief: as §1
# [18] = molecular target: Gal3S(b1-4)Glc6S
# Method in brief: as §1
# [19] = molecular target: Gal3S(b1-4)GlcNAc
# Method in brief: as §1
# [20] = molecular target: Gal3S(b1-4)GlcNAc6S
# Method in brief: as §1
# [21] = molecular target: Gal3S(b1-4)[Fuc(a1-3)]Glc
# Method in brief: as §1
# [22] = molecular target: Gal3S4S(b1-4)GlcNAc
# Method in brief: as §1
# [23] = molecular target: Gal3S6S(b1-4)GlcNAc
# Method in brief: as §1
# [24] = molecular target: Gal3S6S(b1-4)GlcNAc6S
# Method in brief: as §1
# [25] = molecular target: Gal4S(b1-4)GlcNAc
# Method in brief: as §1
# [26] = molecular target: Gal4S6S(b1-4)GlcNAc
# Method in brief: as §1
# [27] = molecular target: Gal6S(b1-4)Glc
# Method in brief: as §1
# [28] = molecular target: Gal6S(b1-4)Glc6S
# Method in brief: as §1
# [29] = molecular target: Gal6S(b1-4)GlcNAc
# Method in brief: as §1
# [30] = molecular target: Gal6S(b1-4)GlcNAc6S
# Method in brief: as §1
# [31] = molecular target: GalNAc(a1-3)Gal
# Method in brief: as §1
# [32] = molecular target: GalNAc(a1-3)GalNAc
# Method in brief: as §1
# [33] = molecular target: GalNAc(b1-3)Gal
# Method in brief: as §1
# [34] = molecular target: GalNAc(b1-3)Gal(a1-4)Gal(b1-4)GlcNAc
# Method in brief: as §1
# [35] = molecular target: GalNAc(b1-3)Gal(a1-4)Gal(b1-4)GlcNAc(b1-3)Gal(b1-4)Glc
# Method in brief: as §1
# [36] = molecular target: GalNAc(b1-3)GalNAc
# Method in brief: as §1
# [37] = molecular target: GalNAc(b1-4)GlcNAc
# Method in brief: as §1
# [38] = molecular target: GalNAc(b1-4)GlcNAc(b1-2)Man(a1-3)[GalNAc(b1-4)GlcNAc(b1-2)Man(a1-6)]Man(b1-4)GlcNAc(b1-4)GlcNAc
# Method in brief: as §1
binder,measurement,setting,value
B1,glycan array binding signal (z-score),[1],0.104
same,glycan array binding signal (z-score),[2],-0.565
same,glycan array binding signal (z-score),[3],-0.123
same,glycan array binding signal (z-score),[4],0.087
same,glycan array binding signal (z-score),[5],-0.223
same,glycan array binding signal (z-score),[6],-0.545
same,glycan array binding signal (z-score),[7],-0.19
same,glycan array binding signal (z-score),[8],-0.579
same,glycan array binding signal (z-score),[9],-0.593
same,glycan array binding signal (z-score),[10],-0.067
same,glycan array binding signal (z-score),[11],0.051
same,glycan array binding signal (z-score),[12],-0.62
same,glycan array binding signal (z-score),[13],0.252
same,glycan array binding signal (z-score),[14],-0.147
same,glycan array binding signal (z-score),[15],0.159
same,glycan array binding signal (z-score),[16],0.013
same,glycan array binding signal (z-score),[17],-0.49
same,glycan array binding signal (z-score),[18],0.405
same,glycan array binding signal (z-score),[19],-0.121
same,glycan array binding signal (z-score),[20],0.165
same,glycan array binding signal (z-score),[21],0.108
same,glycan array binding signal (z-score),[22],0.581
same,glycan array binding signal (z-score),[23],0.122
same,glycan array binding signal (z-score),[24],0.393
same,glycan array binding signal (z-score),[25],0.949
same,glycan array binding signal (z-score),[26],0.202
same,glycan array binding signal (z-score),[27],0.059
same,glycan array binding signal (z-score),[28],1.26
same,glycan array binding signal (z-score),[29],-0.167
same,glycan array binding signal (z-score),[30],1.38
same,glycan array binding signal (z-score),[31],-0.615
same,glycan array binding signal (z-score),[32],-0.698
same,glycan array binding signal (z-score),[33],-0.293
same,glycan array binding signal (z-score),[34],0.158
same,glycan array binding signal (z-score),[35],-0.414
same,glycan array binding signal (z-score),[36],-0.497
same,glycan array binding signal (z-score),[37],-0.629
same,glycan array binding signal (z-score),[38],0.662

# Reprinted at random: two entries already listed, in no set order.
binder,measurement,setting,value
B1,glycan array binding signal (z-score),[16],0.013
same,glycan array binding signal (z-score),[7],-0.19
